# Laboratory results from PubChem BioAssay (EPA / NIEHS).
# Chains of the proteins cited; added tags and fusions are not shown.
# UniProt P04637, whole entry, looked up: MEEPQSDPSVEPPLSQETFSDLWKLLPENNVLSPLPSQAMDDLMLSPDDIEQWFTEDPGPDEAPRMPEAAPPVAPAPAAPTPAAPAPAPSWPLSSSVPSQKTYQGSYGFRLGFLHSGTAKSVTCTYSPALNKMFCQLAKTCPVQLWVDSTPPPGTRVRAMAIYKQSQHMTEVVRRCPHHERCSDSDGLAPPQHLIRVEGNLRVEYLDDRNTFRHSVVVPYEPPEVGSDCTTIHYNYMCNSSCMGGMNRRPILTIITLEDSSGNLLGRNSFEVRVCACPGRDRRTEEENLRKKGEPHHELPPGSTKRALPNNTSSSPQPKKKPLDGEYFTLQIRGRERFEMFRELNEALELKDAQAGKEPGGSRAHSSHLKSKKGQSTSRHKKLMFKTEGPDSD
# Where “and” joins values, the source holds several entries; their conditions need not be identical. Equal entries are not always repeated. This list was built around the results that the source calls inconclusive (neither active nor inactive); the mix of calls is not that of the screen. Where the call is inconclusive, the potency comes from a doubtful curve fit. More than one record can exist for a structure, and the calls need not agree. Calls of active or inactive are those of the source. Rule for the calls: active = hit-call score of the fitted dose curve at least 0.9, where 1 is the maximum; inconclusive = response in the unintended direction; inactive = score below 0.9.
# What was measured:
# [1] = TOX21_p53_BLA_p4_viability: Viability Assessment in the Tox21 HCT-116 p53 Agonism Beta-lactamase Assay, Phase 4 (AID 2283597);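 note: hits lower the luminescence signal meaning cytotoxicity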
# Procedure, shortened: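 Readout: ATP luminescence (CellTiter-Glo), measured 30 min after reagent addition at RT. The reagent followed a 2 h CCF4-AM incubation, and the cells had been exposed to compound for 16 h at 37C.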
# [2] = molecular target: Cellular tumor antigen p53 (Homo sapiens) (UniProt P04637); test: TOX21_p53_BLA_p4_ratio: Tox21 HCT-116 p53 Agonism Beta-lactamase Assay, Ratio, Phase 4 (AID 2283601)
# Procedure, shortened: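 HCT-116 p53 beta-lactamase reporter cells (4000/well) preincubated 5 h, then compound (217-fold dilution of DMSO stock) for 16 h at 37C. CCF4-AM substrate added 2 h at room temperature; 460/530 nm emission ratio fitted upward versus DMSO.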
# [3] = TOX21_p53_BLA_p5_viability: Viability Assessment in the Tox21 HCT-116 p53 Agonism Beta-lactamase Assay, Phase 5 (AID 2283600)
# Procedure, shortened: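 Workflow: seed 4000 cells per well, wait 5 h, add compounds (DMSO, 217-fold dilution), incubate 16 h, load CCF4-AM 2 h, add CellTiter-Glo, read luminescence after 30 min.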
# [4] = Tanguay_ZF_120hpf_OTIC_legacy: (Legacy) Oregon State University Tanguay Lab 120 Hour Post-fertilization zebrafish Assay for Otic Vesicle Malformation (AID 2283639)
# Procedure, shortened: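 Brightfield scoring at 120 hpf, binary present/absent; DMSO negative control, 5uM trimethyltin chloride positive control. Static exposure at 28C, final DMSO 0.64% (vol/vol). Dead embryos not scored for malformation.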
# [5] = Tanguay_ZF_120hpf_AXIS_legacy: (Legacy) Oregon State University Tanguay Lab 120 Hour Post-fertilization zebrafish Assay for Body Axis Malformation (AID 2283635);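 note: potency for an increased fraction of larvae scored with body axis malformation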
# Procedure, shortened: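 Chorion is removed with pronase at 4 hpf, then single 6 hpf embryos are dosed (final DMSO 0.64%) and held statically at 28C in sealed, foil-covered plates. At 120 hpf body axis malformation is recorded as present or absent.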
# [6] = Tanguay_ZF_120hpf_SNOU_legacy: (Legacy) Oregon State University Tanguay Lab 120 Hour Post-fertilization zebrafish Assay for Snout Malformation (AID 2283637)
# Procedure, shortened: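 Binary brightfield scoring of snout malformation at 120 hpf. Dechorionated 5D wild-type embryos, one per well, static exposure from 6 hpf at 28C, sealed and dark; final DMSO 0.64% (vol/vol), DMSO as baseline; 5uM trimethyltin chloride positive control.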
compound,measurement,setting,value
CC(C)COC(=O)c1ccccc1,AC50,[1],inconclusive: 46.1 µM
same,outcome,[2],inactive
CCCCCC(=O)CC,AC50,[1],inconclusive: 46.5 µM
same,outcome,[2],inactive
COC(=O)CC(C)CCC=C(C)C (stereo not drawn),outcome,[1],inactive
same,AC50,[2],inconclusive: 46.1 µM
C=C(C)C(=O)OCCOC(=O)C(=C)C,AC50,[1],inconclusive: 46.1 µM
same,outcome,[2],inactive
FC(F)(F)C(F)(F)C(F)(F)C(F)(F)C(F)(F)C(F)(F)CCI,AC50,[1],inconclusive: 23 µM
same,AC50,[3],inconclusive: 45 µM
same,AC50,[2],inconclusive: 23 µM
same,AC50,[4],inconclusive: 593 nM
CC(C)CCCCCOC(=O)CS,outcome,[1],inactive
same,AC50,[2],inconclusive: 88.7 µM
OCCCCCO,AC50,[1],inconclusive: 11.5 µM
same,outcome,[2],inactive
CCCCCCCCCCCCCC(=O)OCC(O)CO (stereo not drawn),AC50,[1],inconclusive: 46.1 µM
same,AC50,[2],inconclusive: 46.1 µM
CC(C)=CCC/C(C)=C\CO,AC50,[1],inconclusive: 0.00365 µM
same,AC50,[3],inconclusive: 14.5 µM and inconclusive: 46.4 µM
same,AC50,[5],inconclusive: 64 µM
same,AC50,[6],inconclusive: 202 µM
same,outcome,[4],inactive
FC(F)(F)COCC(F)(F)F,AC50,[1],inconclusive: 0.222 µM
same,outcome,[2],inactive
CN(C)CCCN1c2ccccc2Sc2ccc(Cl)cc21,AC50,[1],active: 36.8 µM and active: 73.4 µM
same,AC50,[3],inconclusive: 5.67 µM and active: 77.8 µM
same,AC50,[2],active: 20.6 µM
same,outcome,[4],inactive
CCCCOCCOCCSC#N,outcome,[1],inactive
same,AC50,[2],inconclusive: 28.1 µM
N#[N+]c1ccc2c(S(=O)(=O)[O-])cccc2c1O,outcome,[1],inactive
same,outcome,[2],inactive

# Two entries from above, with bars between the fields:
compound | measurement | setting | value
C=C(C)C(=O)OCCOC(=O)C(=C)C | outcome | [2] | inactive
FC(F)(F)C(F)(F)C(F)(F)C(F)(F)C(F)(F)C(F)(F)CCI | AC50 | [1] | inconclusive: 23 µM
